Source: the supplement of paper PMC10849652
The list shows a part of the results.

The chains behind the UniProt entries cited, without tags or fusion partners. Where a name states a change or a piece, a line headed by the entry shows the natural chain unless it says otherwise.
UniProt Q8N9F7: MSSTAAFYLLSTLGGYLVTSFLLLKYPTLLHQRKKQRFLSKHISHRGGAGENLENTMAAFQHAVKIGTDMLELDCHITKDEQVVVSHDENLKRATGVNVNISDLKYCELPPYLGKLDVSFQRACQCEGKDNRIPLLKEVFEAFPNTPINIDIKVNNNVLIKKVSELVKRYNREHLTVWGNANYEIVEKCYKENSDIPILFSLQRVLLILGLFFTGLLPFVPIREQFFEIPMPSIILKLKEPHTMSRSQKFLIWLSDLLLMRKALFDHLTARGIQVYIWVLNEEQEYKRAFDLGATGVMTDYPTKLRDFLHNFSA
UniProt Q9UQC2, whole entry, looked up: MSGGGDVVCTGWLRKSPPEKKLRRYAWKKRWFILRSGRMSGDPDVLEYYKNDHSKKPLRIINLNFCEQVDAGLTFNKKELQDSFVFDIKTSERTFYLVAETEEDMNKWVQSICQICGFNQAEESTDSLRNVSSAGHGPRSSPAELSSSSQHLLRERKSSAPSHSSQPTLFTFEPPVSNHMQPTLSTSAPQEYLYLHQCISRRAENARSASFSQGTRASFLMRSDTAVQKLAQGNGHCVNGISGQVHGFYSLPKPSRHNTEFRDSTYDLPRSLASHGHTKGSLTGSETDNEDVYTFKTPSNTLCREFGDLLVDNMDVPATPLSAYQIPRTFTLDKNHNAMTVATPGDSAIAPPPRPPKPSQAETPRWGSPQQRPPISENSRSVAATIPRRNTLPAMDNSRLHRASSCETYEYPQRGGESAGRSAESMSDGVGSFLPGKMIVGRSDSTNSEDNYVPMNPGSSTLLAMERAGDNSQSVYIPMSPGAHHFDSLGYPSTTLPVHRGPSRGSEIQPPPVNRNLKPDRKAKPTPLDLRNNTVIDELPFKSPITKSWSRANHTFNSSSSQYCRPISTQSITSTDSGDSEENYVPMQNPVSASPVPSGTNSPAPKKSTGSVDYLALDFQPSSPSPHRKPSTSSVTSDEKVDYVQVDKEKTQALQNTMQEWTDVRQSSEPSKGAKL
UniProt P0CL80: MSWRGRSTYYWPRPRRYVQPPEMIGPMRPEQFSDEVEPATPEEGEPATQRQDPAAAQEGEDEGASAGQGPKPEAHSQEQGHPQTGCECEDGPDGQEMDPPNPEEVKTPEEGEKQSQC
UniProt Q06546: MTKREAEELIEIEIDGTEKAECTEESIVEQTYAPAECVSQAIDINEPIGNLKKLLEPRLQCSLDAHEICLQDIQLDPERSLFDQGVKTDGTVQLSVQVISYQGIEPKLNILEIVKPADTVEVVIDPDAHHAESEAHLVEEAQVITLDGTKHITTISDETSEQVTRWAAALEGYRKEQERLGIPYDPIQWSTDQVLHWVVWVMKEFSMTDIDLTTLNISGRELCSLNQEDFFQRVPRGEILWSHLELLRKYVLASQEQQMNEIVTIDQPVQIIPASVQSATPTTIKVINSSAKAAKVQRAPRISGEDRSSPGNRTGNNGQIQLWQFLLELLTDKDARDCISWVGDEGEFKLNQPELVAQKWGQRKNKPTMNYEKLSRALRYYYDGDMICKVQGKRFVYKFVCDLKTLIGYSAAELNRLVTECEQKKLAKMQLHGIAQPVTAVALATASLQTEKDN
UniProt P06241, whole entry, looked up: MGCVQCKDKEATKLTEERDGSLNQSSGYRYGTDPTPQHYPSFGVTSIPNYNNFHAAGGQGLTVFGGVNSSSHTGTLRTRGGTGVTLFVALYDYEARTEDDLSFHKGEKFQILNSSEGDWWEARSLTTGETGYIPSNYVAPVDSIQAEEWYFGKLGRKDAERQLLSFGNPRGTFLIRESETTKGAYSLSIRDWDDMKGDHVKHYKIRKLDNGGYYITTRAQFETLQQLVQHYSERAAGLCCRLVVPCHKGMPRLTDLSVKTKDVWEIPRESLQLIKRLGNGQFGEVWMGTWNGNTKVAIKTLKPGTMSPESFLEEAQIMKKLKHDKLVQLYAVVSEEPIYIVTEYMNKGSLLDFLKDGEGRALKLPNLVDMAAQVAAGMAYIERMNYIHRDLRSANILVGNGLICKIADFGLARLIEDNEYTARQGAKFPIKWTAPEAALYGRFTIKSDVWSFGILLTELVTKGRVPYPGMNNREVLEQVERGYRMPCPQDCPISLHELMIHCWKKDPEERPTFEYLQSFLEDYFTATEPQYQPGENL
UniProt Q06547, whole entry, looked up: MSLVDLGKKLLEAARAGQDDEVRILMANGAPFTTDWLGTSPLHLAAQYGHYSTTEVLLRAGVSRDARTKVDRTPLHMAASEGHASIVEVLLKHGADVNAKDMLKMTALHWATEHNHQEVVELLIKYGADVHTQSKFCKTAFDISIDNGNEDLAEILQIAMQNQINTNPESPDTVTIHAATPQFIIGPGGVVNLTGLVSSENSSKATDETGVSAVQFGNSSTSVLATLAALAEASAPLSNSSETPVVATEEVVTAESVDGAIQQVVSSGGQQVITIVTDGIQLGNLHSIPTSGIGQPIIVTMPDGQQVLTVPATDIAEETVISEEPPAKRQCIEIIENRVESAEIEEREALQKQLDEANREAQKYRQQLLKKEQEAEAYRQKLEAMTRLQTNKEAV
UniProt Q8WXI9: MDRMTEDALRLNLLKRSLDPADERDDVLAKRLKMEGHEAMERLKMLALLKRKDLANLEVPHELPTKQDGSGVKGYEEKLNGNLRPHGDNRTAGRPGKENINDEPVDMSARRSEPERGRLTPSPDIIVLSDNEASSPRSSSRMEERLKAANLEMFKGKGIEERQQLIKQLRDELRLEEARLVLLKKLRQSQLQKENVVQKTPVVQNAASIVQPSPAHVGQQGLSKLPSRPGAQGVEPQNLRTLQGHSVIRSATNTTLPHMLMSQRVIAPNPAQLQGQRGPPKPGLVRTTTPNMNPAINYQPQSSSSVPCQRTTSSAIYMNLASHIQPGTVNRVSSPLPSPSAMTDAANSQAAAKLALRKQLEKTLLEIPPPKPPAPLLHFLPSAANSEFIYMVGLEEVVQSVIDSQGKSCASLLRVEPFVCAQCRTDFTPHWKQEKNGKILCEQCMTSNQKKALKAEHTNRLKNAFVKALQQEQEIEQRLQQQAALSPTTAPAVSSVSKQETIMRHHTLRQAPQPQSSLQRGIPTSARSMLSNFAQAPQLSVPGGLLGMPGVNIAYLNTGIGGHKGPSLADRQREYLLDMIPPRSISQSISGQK
UniProt P51114, whole entry, looked up: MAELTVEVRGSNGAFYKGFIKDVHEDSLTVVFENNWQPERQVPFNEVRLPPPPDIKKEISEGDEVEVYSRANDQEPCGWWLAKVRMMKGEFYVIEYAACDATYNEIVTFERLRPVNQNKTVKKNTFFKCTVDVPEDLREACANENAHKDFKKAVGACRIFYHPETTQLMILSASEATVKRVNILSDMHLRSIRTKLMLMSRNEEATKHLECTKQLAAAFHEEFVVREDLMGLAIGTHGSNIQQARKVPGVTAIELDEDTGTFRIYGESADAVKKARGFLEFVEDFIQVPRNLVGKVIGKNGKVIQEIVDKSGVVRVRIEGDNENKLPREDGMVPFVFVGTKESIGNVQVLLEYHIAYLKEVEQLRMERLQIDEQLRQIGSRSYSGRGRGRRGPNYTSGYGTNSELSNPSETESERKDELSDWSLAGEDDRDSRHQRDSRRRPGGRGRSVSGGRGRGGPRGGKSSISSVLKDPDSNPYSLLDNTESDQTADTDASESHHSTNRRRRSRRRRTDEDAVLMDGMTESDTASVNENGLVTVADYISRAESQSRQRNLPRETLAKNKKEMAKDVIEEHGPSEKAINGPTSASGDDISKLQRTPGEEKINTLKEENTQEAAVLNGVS
UniProt Q10471: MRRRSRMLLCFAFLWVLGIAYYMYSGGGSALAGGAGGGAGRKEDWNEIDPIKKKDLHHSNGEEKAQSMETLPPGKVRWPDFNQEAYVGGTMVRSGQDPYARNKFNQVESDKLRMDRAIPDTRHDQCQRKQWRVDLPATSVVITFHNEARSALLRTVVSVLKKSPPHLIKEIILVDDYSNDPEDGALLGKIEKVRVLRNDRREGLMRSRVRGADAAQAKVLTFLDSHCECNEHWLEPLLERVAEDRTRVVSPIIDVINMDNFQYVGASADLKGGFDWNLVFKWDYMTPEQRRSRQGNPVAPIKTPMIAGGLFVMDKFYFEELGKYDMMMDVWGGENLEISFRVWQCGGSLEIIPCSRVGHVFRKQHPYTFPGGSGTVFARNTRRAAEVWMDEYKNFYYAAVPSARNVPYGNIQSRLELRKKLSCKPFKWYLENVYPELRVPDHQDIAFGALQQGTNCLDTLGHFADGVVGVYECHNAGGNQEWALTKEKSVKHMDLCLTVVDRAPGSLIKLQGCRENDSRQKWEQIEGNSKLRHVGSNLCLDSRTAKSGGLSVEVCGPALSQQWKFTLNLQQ
UniProt O43524: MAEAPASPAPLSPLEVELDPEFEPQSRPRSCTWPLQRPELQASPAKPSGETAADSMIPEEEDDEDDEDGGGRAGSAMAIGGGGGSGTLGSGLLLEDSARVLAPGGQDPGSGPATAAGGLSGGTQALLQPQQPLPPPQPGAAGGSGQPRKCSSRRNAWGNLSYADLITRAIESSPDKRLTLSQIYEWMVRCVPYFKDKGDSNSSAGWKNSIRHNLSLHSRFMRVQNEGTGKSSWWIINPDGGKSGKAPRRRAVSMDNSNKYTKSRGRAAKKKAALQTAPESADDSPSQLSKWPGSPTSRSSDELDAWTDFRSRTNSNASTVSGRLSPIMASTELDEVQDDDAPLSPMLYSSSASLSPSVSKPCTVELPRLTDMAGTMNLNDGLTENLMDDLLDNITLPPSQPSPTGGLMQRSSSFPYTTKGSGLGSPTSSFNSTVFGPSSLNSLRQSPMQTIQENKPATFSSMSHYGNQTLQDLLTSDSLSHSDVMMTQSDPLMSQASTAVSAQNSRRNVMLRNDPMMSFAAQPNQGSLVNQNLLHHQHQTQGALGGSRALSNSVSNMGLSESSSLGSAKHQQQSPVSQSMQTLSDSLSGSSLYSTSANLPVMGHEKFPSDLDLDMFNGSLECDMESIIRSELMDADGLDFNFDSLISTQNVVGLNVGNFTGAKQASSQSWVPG
UniProt Q8TEQ6: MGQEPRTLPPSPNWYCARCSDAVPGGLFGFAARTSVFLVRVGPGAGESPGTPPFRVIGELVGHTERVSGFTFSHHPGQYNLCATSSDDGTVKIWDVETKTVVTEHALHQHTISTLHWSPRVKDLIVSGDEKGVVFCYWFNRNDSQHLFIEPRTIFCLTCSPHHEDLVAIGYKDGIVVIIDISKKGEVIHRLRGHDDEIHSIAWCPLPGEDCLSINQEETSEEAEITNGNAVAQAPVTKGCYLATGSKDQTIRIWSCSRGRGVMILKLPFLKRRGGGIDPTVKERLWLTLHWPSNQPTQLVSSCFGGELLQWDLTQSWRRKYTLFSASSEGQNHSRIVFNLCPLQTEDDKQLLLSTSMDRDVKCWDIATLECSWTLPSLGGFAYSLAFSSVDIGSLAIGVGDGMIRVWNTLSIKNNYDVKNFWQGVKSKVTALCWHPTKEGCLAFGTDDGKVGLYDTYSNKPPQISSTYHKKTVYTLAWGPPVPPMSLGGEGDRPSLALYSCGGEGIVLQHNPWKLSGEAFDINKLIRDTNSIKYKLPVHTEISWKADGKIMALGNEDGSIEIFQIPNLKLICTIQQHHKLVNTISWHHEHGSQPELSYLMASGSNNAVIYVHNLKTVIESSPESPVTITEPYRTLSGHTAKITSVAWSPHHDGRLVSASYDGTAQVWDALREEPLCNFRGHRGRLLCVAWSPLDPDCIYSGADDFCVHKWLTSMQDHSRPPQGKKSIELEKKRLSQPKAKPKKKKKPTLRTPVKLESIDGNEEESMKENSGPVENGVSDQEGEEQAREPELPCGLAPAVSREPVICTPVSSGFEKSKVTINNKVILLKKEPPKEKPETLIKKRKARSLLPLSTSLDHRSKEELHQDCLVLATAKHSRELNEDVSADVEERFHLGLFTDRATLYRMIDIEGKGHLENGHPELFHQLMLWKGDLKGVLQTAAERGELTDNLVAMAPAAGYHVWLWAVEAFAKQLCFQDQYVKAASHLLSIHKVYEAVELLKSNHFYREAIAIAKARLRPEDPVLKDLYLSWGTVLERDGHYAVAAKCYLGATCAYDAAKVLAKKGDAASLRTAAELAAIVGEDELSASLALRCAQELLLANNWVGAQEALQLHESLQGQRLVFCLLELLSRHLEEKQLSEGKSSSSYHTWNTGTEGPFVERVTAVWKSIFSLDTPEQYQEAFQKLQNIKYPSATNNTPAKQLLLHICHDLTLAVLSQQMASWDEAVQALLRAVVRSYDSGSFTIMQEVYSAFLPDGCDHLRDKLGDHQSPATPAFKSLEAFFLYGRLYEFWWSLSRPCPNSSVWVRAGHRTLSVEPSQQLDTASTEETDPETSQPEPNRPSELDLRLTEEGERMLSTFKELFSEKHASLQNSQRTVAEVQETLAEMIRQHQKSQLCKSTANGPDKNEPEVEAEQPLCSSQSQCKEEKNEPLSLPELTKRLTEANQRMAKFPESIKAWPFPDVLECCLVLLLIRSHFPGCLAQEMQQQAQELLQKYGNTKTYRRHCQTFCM

Assays:
Test in all cases: log2 fold change, soluble protein after heating vs DMSO (PISA); higher = thermal stabilisation; K562 lysate, 10 uM; active = over 0.2 and 3.5 SD of the protein, either way, in both replicates (recomputed)
erlotinib = compound: C#Cc1cccc(Nc2ncnc3cc(OCCOC)c(OCCOC)cc23)c1 [erlotinib]
Procedure, shortened: (§1)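 Pellets of K562 cells were dounce-homogenised in PBS pH 7.4 with 1 mM MgCl2, and the crude extract was held at 1 mg/mL protein for a 30 min treatment with 10 μM compound. Aliquots were heated for 3 min over 48°C-58°C and pooled before NP-40 was added to 0.5% at 4°C. The supernatant from 21,000xg for 90 min was quantified by TMTpro 16plex LC-MS/MS with channel sums equalised. Values are reported from duplicates as log-two fold change in thermal stability relative to solvent controls.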

[1] = compound: C/C(=N\NC(=O)C1=CC(=CC=C1)S(=O)(=O)N2CCOCC2)/C3=C(C=CC(=C3)Cl)O
Procedure, shortened: as §1

[2] = compound: C1=CC(=CC=C1C2=NC3=C(N2)C=C(C=C3)C(=O)N)OC4=CC=C(C=C4)Cl
Procedure, shortened: as §1

[3] = compound: C1=CC2=C(C=CC(=C2)/C=C\3/C(=O)NC(=NCC4=CC=CS4)S3)N=C1
Procedure, shortened: as §1

[4] = compound: C1=CC2=NC=CN=C2C=C1/C=C/3\C(=O)NC(=O)S3
Procedure, shortened: as §1

[5] = compound: C1=CC=C(C=C1)C2=NC(=C(N2)C3=CC=NC=C3)C4=CC(=C(C=C4)Cl)O
Procedure, shortened: as §1

[6] = compound: C1=CC=C2C(=C1)C3=NNC4=CC=CC(=C43)C2=O
Procedure, shortened: as §1

[7] = compound: C1CCN(C1)C(=O)NC2=CC=CC(=C2)NC3=NC=C(C(=N3)NCCC4=CN=CN4)Br
Procedure, shortened: as §1

[8] = compound: C1CN(CCC1(CC2=CC=C(C=C2)Cl)N)C3=NC=NC4=C3C=CN4
Procedure, shortened: as §1

IRAK-1-4 Inhibitor I = compound: C1COCCN1CCN2C3=CC=CC=C3N=C2NC(=O)C4=CC(=CC=C4)[N+](=O)[O-] [IRAK-1-4 Inhibitor I]
Procedure, shortened: as §1

Measured: log2 fold change

GCDH (UniProt Q92947)
inactive: erlotinib -0.038 | [1] 0.1 | [2] -0.023 | [3] 0.051 | [4] 0.089 | [5] -0.027 | [6] 0.009 | [7] 0 | [8] 0 | IRAK-1-4 Inhibitor I 0.011

GDPGP1 (UniProt Q6ZNW5)
inactive: erlotinib 0.061 | [1] 0.056 | [2] 0.011 | [3] 0.054 | [4] 0.022 | [5] -0.041 | [6] -0.003 | [7] -0.005 | [8] 0.011 | IRAK-1-4 Inhibitor I 0

GCC1 (UniProt Q96CN9)
inactive: erlotinib -0.007 | [1] 0.067 | [2] 0.033 | [3] -0.08 | [4] 0.039 | [5] -0.013 | [6] -0.043 | [7] 0.071 | [8] -0.025 | IRAK-1-4 Inhibitor I -0.004

GDPD1 (UniProt Q8N9F7)
inactive: erlotinib -0.037 | [1] 0.248 | [2] -0.112 | [3] 0.001 | [4] -0.041 | [5] 0.011 | [6] -0.024 | [7] 0.032 | [8] 0.086 | IRAK-1-4 Inhibitor I 0.038

GAB2 (UniProt Q9UQC2)
inactive: erlotinib -0.011 | [1] 0.014 | [2] 0.036 | [3] -0.035 | [4] -0.031 | [5] 0.012 | [6] 0.026 | [7] -0.075 | [8] 0.024 | IRAK-1-4 Inhibitor I -0.003

FOXRED1 (UniProt Q96CU9)
inactive: erlotinib 0.017 | [1] 0.053 | [2] 0.004 | [3] 0.035 | [4] 0.007 | [5] -0.008 | [6] -0.096 | [7] -0.028 | [8] 0.013 | IRAK-1-4 Inhibitor I 0.001

FRYL (UniProt O94915)
inactive: erlotinib 0.008 | [1] 0.002 | [2] -0.03 | [3] 0.013 | [4] 0.01 | [5] -0.024 | [6] -0.001 | [7] -0.026 | [8] 0.022 | IRAK-1-4 Inhibitor I 0.008

FSCN1 (UniProt Q16658)
inactive: erlotinib -0.004 | [1] 0.003 | [2] 0.026 | [3] -0.009 | [4] -0.001 | [5] 0.004 | [6] 0.037 | [7] 0.023 | [8] -0.023 | IRAK-1-4 Inhibitor I 0.005

GALNT7 (UniProt Q86SF2)
inactive: erlotinib 0 | [1] -0.033 | [2] -0.038 | [3] -0.013 | [4] -0.025 | [5] -0.028 | [6] -0.015 | [7] -0.023 | [8] -0.023 | IRAK-1-4 Inhibitor I 0.025

Quoted from above (2 entries):
GDPGP1 (UniProt Q6ZNW5)
inactive: erlotinib 0.061 | [1] 0.056 | [2] 0.011 | [3] 0.054 | [4] 0.022 | [5] -0.041 | [6] -0.003 | [7] -0.005 | [8] 0.011 | IRAK-1-4 Inhibitor I 0

GCC1 (UniProt Q96CN9)
inactive: erlotinib -0.007 | [1] 0.067 | [2] 0.033 | [3] -0.08 | [4] 0.039 | [5] -0.013 | [6] -0.043 | [7] 0.071 | [8] -0.025 | IRAK-1-4 Inhibitor I -0.004

(listing goes on)

GAGE12F (UniProt P0CL80)
inactive: erlotinib 0.021 | [1] -0.017 | [2] 0.07 | [3] 0.06 | [4] 0.047 | [5] -0.006 | [6] 0.033 | [7] 0.021 | [8] 0.083 | IRAK-1-4 Inhibitor I 0.047

GEMIN2 (UniProt O14893)
inactive: erlotinib 0.032 | [1] 0.047 | [2] -0.001 | [3] 0.053 | [4] 0.028 | [5] 0.015 | [6] -0.11 | [7] -0.007 | [8] 0.011 | IRAK-1-4 Inhibitor I 0.05

GABPA (UniProt Q06546)
inactive: erlotinib 0.008 | [1] -0.054 | [2] -0.018 | [3] -0.008 | [4] 0.009 | [5] -0.007 | [6] 0.014 | [7] -0.012 | [8] -0.021 | IRAK-1-4 Inhibitor I 0.009

FYN (UniProt P06241)
inactive: erlotinib -0.028 | [1] 0.02 | [2] 0.025 | [3] 0.028 | [4] -0.062 | [5] 0.058 | [6] 0.092 | [7] 0.132 | [8] -0.018 | IRAK-1-4 Inhibitor I -0.145

GDI1 (UniProt P31150)
inactive: erlotinib -0.019 | [1] 0.041 | [2] -0.004 | [3] -0.012 | [4] 0.012 | [5] 0.002 | [6] 0.014 | [7] 0 | [8] -0.009 | IRAK-1-4 Inhibitor I 0.011

GABPB1 isoform 3 (UniProt Q06547)
inactive: erlotinib -0.03 | [1] -0.042 | [2] -0.051 | [3] 0.016 | [4] 0.045 | [5] -0.048 | [6] -0.035 | [7] -0.032 | [8] 0.084 | IRAK-1-4 Inhibitor I 0.078

GFER (UniProt P55789)
inactive: erlotinib 0.008 | [1] -0.143 | [2] 0.022 | [3] 0.101 | [4] -0.044 | [5] -0.028 | [6] 0.01 | [7] 0.032 | [8] -0.015 | IRAK-1-4 Inhibitor I 0.027

GATAD2B (UniProt Q8WXI9)
inactive: erlotinib 0.01 | [1] 0.071 | [2] -0.037 | [3] 0.037 | [4] -0.058 | [5] 0.01 | [6] -0.055 | [7] 0.016 | [8] 0.033 | IRAK-1-4 Inhibitor I 0.02

GALM (UniProt Q96C23)
inactive: erlotinib -0.002 | [1] 0.022 | [2] -0.001 | [3] 0.017 | [4] -0.037 | [5] -0.025 | [6] -0.01 | [7] -0.009 | [8] 0.022 | IRAK-1-4 Inhibitor I 0.014

FXR1 (UniProt P51114)
inactive: erlotinib 0.041 | [1] 0.012 | [2] -0.039 | [3] -0.011 | [4] -0.024 | [5] 0.002 | [6] -0.082 | [7] -0.015 | [8] -0.008 | IRAK-1-4 Inhibitor I -0.057

GEMIN8 (UniProt Q9NWZ8)
inactive: erlotinib 0.004 | [1] 0.003 | [2] -0.004 | [3] 0.054 | [4] -0.003 | [5] -0.006 | [6] -0.006 | [7] -0.028 | [8] 0.395 | IRAK-1-4 Inhibitor I 0.046

GALNT2 (UniProt Q10471)
inactive: erlotinib -0.028 | [1] 0.005 | [2] -0.098 | [3] 0.054 | [4] -0.004 | [5] -0.04 | [6] -0.056 | [7] -0.045 | [8] 0.002 | IRAK-1-4 Inhibitor I -0.012

FOXO3 (UniProt O43524)
inactive: erlotinib -0.02 | [1] 0.083 | [2] 0.047 | [3] -0.02 | [4] -0.018 | [5] 0.024 | [6] -0.026 | [7] 0.01 | [8] 0.018 | IRAK-1-4 Inhibitor I 0.016

FRRS1 (UniProt Q6ZNA5)
inactive: erlotinib 0.055 | [1] -0.003 | [2] 0.096 | [3] 0.033 | [4] -0.065 | [5] -0.01 | [6] -0.021 | [7] 0.012 | [8] -0.006 | IRAK-1-4 Inhibitor I 0.038

GBF1 (UniProt Q92538)
inactive: erlotinib 0.044 | [1] 0.043 | [2] -0.036 | [3] -0.009 | [4] 0.002 | [5] -0.008 | [6] -0.012 | [7] -0.007 | [8] 0.023 | IRAK-1-4 Inhibitor I 0.058

GART (UniProt P22102)
inactive: erlotinib -0.007 | [1] 0.022 | [2] -0.025 | [3] -0.013 | [4] 0.016 | [5] 0.015 | [6] -0.011 | [7] -0.001 | [8] -0.003 | IRAK-1-4 Inhibitor I 0.005

GEMIN5 (UniProt Q8TEQ6)
inactive: erlotinib -0.001 | [1] 0.004 | [2] -0.012 | [3] 0.015 | [4] 0.032 | [5] -0.006 | [6] -0.034 | [7] 0 | [8] -0.006 | IRAK-1-4 Inhibitor I -0.025

GCAT isoform 2 (UniProt O75600)
inactive: erlotinib -0.031 | [1] 0.042 | [2] -0.01 | [3] 0.03 | [4] -0.002 | [5] -0.002 | [6] 0.006 | [7] 0.005 | [8] 0.034 | IRAK-1-4 Inhibitor I 0.04
